“And” between values parts separate entries of the source, which are not always exact repeats. Equal entries are not always repeated. About 5,400 (1.8%) of roughly 300,000 compounds were called active. Inconclusive means that the source gave no clear call. Such entries were picked first, then a sample of the others. The call rests on the fitted dose curve; tested in HEK293 cells. Potencies of inconclusive entries are doubtful fits and often do not repeat.
Assay: qHTS for inhibitors of binding or entry into cells for Marburg Virus
Settings: Marburg virus pseudotyped entry inhibition, cell reporter; activity change, negative = inhibition: at 37.8 µM (top of the series) unless noted
On the % scale 0 is the no-effect control and ±100 the full control effect; potency means the concentration at half of the fitted maximal effect.

Q: For `CCOC(=O)c1sc2nc(CSc3ccccc3)nc(N3CCC(C(N)=O)CC3)c2c1C`, which Potency is on record?
A: inconclusive: 3.16 µM [inhibitor, full curve]

Q: For `CCOc1ccc(NC(=O)CSc2nccn2Cc2ccco2)cc1`, which Potency is on record?
A: inactive

Q: Which Potency does the source give for `COc1ccc(-c2cc(C(=O)NC3CCCC3)no2)cc1` here?
A: inconclusive: 0.355 µM [activator, full curve, poor fit]

Q: For `CC(Cc1ccccc1Sc1ccccc1O)N(C)C` (centres undefined), which Potency is on record?
A: inconclusive: 11.2 µM [inhibitor, partial curve]

Q: Which “activity change, negative = inhibition” value does the source give for `COc1cc(/C=C2/NC(=O)N(CC(=O)Nc3cccc(C)c3)C2=O)ccc1OCC(N)=O` here?
A: inactive: -1.85% [at 14.2 µM]

Q: With `COc1cc(OC)c(OC)cc1CN1CCN(C(=O)c2cccc3ccccc23)CC1` as the compound, how does the Potency read?
A: inconclusive: 5.62 µM [inhibitor, partial curve, poor fit]

Q: With `CCCNC(=S)Nc1cccc(C(F)(F)F)c1` as the compound, how does the “activity change, negative = inhibition” value read?
A: inactive: -2.93%

Q: For `CCCn1c(N)[n+](CC(=O)c2ccco2)c2ccccc21`, which Potency is on record?
A: inconclusive: 20.6 µM [inhibitor, single point]

Q: With `O=C(Nc1cccc(S(=O)(=O)N2CCCCC2)c1)c1cc2ccccc2o1` as the compound, how does the Potency read?
A: inconclusive: 35.5 µM [inhibitor, partial curve, poor fit]

Q: With `CCS(=O)(=O)CCSc1nc2ccccc2s1` as the compound, how does the “activity change, negative = inhibition” value read?
A: inactive: 14.3%

Q: Which “activity change, negative = inhibition” value does the source give for `O=[N+]([O-])c1ccc(N2CCN(c3ccccn3)CC2)c(Cl)c1` here?
A: inactive: -26.3% [at 46.1 µM]

Q: For `Cc1ccc(-c2cc(C(F)(F)F)n3nc(C(=O)N4CCN5CCCC5C4)cc3n2)cc1` (centres undefined), which Potency is on record?
A: inconclusive: 35.5 µM [inhibitor, single point]

Q: With `CC1CC2(C)C(=CC1=O)CCC1C2C(O)CC2(C)C1CCC2(O)C(=O)CO` (centres undefined) as the compound, how does the Potency read?
A: inconclusive: 3.16 µM [inhibitor, partial curve, poor fit]

Q: With `COc1ccc2c(c1)CC/C(=C/c1cc(OC)c(OC)c(OC)c1)C2=O` as the compound, how does the “activity change, negative = inhibition” value read?
A: inactive: -11.2% [at 46.1 µM]

Q: For `O=C(COc1ccc2oc3c(c2c1)CCCC3)Nc1ccc(Br)cc1`, which “activity change, negative = inhibition” value is on record?
A: inactive: 19.4% [at 46.1 µM]

Q: Which “activity change, negative = inhibition” value does the source give for `c1ccc(C2=NNC(=NCc3ccc4c(c3)OCO4)SC2)cc1` here?
A: inactive: 5.38%

Q: For `Cc1cccc2c1CCCC2=O`, which Potency is on record?
A: inconclusive: 6.31 µM [inhibitor, single point]

Q: With `Cc1ccccc1CN(c1ccc(C(=O)Nc2ccccc2C(=O)N2CCCC2)cc1)S(C)(=O)=O` as the compound, how does the Potency read?
A: inconclusive: 32.6 µM [inhibitor, single point]

Q: With `Cc1cc(C=O)c(C)n1-c1ccc(NC2CCCC2)c([N+](=O)[O-])c1` as the compound, how does the Potency read?
A: inconclusive: 10.3 µM [inhibitor, partial curve, poor fit]

Q: With `CC1CCN(c2ccc(-c3cccc(NC(=O)c4ccco4)c3)nn2)CC1` as the compound, how does the Potency read?
A: active: 7.94 µM

Q: Which Potency does the source give for `C=CCN1CCc2cccc3c2C1Cc1ccc(O)c(O)c1-3` (centres undefined) here?
A: active: 11.2 µM

Q: With `COc1ccc(/C=C/C(=O)NCC2COc3ccccc3O2)cc1OC` (centres undefined) as the compound, how does the Potency read?
A: inconclusive: 3.16 µM [inhibitor, partial curve, poor fit]

Q: For `COc1ccc(Cn2c(SCc3ccc(C(=O)NC4CCCC4)cc3)nc3ccncc32)cc1`, which Potency is on record?
A: inconclusive: 1.12 µM [inhibitor, full curve, poor fit]

Q: Which Potency does the source give for `CN1CCN(Cc2ccc(Sc3ccc(Cl)cc3)c([N+](=O)[O-])c2)CC1` here?
A: inconclusive: 10 µM [inhibitor, partial curve, poor fit]

Q: For `Fc1ccccc1N=C1NN=C(c2ccccc2)CS1`, which Potency is on record?
A: active: 11.2 µM

Q: Which Potency does the source give for `Cc1ccc(CSc2nnc(SCC(=O)N/N=C/c3ccc(C(=O)O)cc3)s2)cc1` here?
A: inconclusive: 3.26 µM [inhibitor, partial curve]

Q: Which Potency does the source give for `Cc1c(Cl)cccc1N1C(=O)CC(NNC(=O)c2cccs2)C1=O` (centres undefined) here?
A: inconclusive: 1 µM [inhibitor, full curve, poor fit]

Q: With `Cc1c(C)n2c(SCC(=O)N3CCCCC3)nnc2[nH]c1=O` as the compound, how does the “activity change, negative = inhibition” value read?
A: inactive: 1.44% [at 46.1 µM]

Q: For `CCC(=O)Nc1cccc(NC(=O)c2ccccc2Br)c1`, which Potency is on record?
A: inconclusive: 11.2 µM [inhibitor, single point]

Q: With `COc1cc(/C=C/C(=O)O)cc(S(=O)(=O)N2CCc3ccccc32)c1OC` as the compound, how does the “activity change, negative = inhibition” value read?
A: inactive: 8.27% [at 46.1 µM]

Q: For `COC(=O)c1cccc(-n2c(CCC(=O)O)ccc2-c2ccc(OC)cc2)c1`, which Potency is on record?
A: inconclusive: 25.1 µM [inhibitor, single point]

Q: For `CC(=O)Nc1cccc(NC(=O)c2ccc(COc3ccccc3)cc2)c1`, which Potency is on record?
A: inconclusive: 1.12 µM [activator, full curve, poor fit]

Q: Which Potency does the source give for `COc1cccc(CC2(CO)CCN(Cc3ccc4cccc(F)c4n3)CC2)c1` here?
A: inconclusive: 35.5 µM [inhibitor, single point]

Q: With `Cc1cccc(-c2noc(-c3ccc4c(c3)OCO4)n2)c1` as the compound, how does the Potency read?
A: inconclusive: 17.8 µM [inhibitor, single point]

Q: Which Potency does the source give for `O=C(OCCN1CCCC1=O)c1cc(F)c(F)c(F)c1F` here?
A: inconclusive: 17.8 µM [activator, single point]

Q: With `Nc1ccc(C(=O)OCC(=O)c2cccc([N+](=O)[O-])c2)cc1` as the compound, how does the Potency read?
A: inconclusive: 5.62 µM [inhibitor, single point]

Q: For `Cc1ccc(C(O)CN2C3=NCCCN3c3ccccc32)cc1` (centres undefined), which Potency is on record?
A: inconclusive: 20.6 µM [inhibitor, partial curve, poor fit]

Q: With `COC(=O)C(=O)C1CCc2c(Cl)cc(OC)c(OC)c2C1=O` (centres undefined) as the compound, how does the “activity change, negative = inhibition” value read?
A: inactive: -1.41%

Q: For `CN(CC(=O)Nn1cnnc1)S(=O)(=O)c1ccccc1`, which “activity change, negative = inhibition” value is on record?
A: inactive: 5.5%

Q: Which “activity change, negative = inhibition” value does the source give for `Cc1cccc[n+]1CC(=O)c1ccc([N+](=O)[O-])cc1` here?
A: inactive: 10.1% [at 46.1 µM]

Q: For `Cn1c(Cn2nnc3ccccc32)nnc1SCC(=O)N1c2ccccc2Sc2ccccc21`, which Potency is on record?
A: inconclusive: 29.1 µM [inhibitor, single point]

Q: With `Cc1nn(-c2ccccc2)c(OC(=O)C(C)C)c1Sc1ccccc1` as the compound, how does the Potency read?
A: inconclusive: 2.24 µM [inhibitor, partial curve, poor fit]

Q: With `COC(=O)[C@H](C=C[C@H](C)Cc1cc(Br)cc(OCc2ccccc2)c1OC)OCc1ccccc1` as the compound, how does the “activity change, negative = inhibition” value read?
A: inactive: -15.1% [at 14.2 µM]

Q: For `Cc1ccc(S(=O)(=O)N2CCCN(C)c3nc4ccccc4nc32)cc1`, which Potency is on record?
A: inconclusive: 11.2 µM [inhibitor, single point]

Q: For `O=C(O)c1ccc(NC(=O)c2cn(-c3ccccc3)nc2-c2ccc(Cl)cc2)cc1`, which Potency is on record?
A: inconclusive: 35.5 µM [inhibitor, single point]

Q: With `COc1ccc(S(=O)(=O)Nc2ccc(C)cc2)cc1N(C)S(=O)(=O)c1ccc(Cl)cc1` as the compound, how does the Potency read?
A: inconclusive: 29.1 µM [inhibitor, single point]

Q: With `COc1ccc(OCc2cc(C(=O)N(C)CC3CCCCO3)no2)c(Cl)c1` (centres undefined) as the compound, how does the “activity change, negative = inhibition” value read?
A: inactive: 28.1%

Q: For `COc1ccc(C(=O)Cn2nnc(-c3ccccc3NC(=O)c3ccco3)n2)cc1`, which Potency is on record?
A: inconclusive: 11.2 µM [inhibitor, single point]

Q: With `O=C1CN(C(=O)Cc2ccc(F)cc2)C(c2ccccc2)c2cc(Cl)ccc2N1` (centres undefined) as the compound, how does the “activity change, negative = inhibition” value read?
A: inactive: -22.9% [at 46.1 µM]

Q: For `Cc1cc(C)cc(OC(=O)C23CCC(C)(C(=O)O2)C3(C)C)c1` (centres undefined), which Potency is on record?
A: inconclusive: 35.5 µM [activator, single point]

Q: For `CN(C)C(=O)Nc1cccc(OC(=O)N(C)C)c1`, which “activity change, negative = inhibition” value is on record?
A: inactive: 4.64%

Q: For `CN(Cc1ccccc1)C(=O)c1ccc2c(c1)OCCO2`, which “activity change, negative = inhibition” value is on record?
A: inactive: 4.22%

Q: For `CCOc1ccccc1NC(=O)CSc1nc(N)c(C#N)cc1C#N`, which Potency is on record?
A: inconclusive: 11.2 µM [inhibitor, partial curve, poor fit]

Q: For `COc1ccccc1N(CC(=O)NCCSCc1ccccc1)S(=O)(=O)c1ccc(C)cc1`, which Potency is on record?
A: inconclusive: 10 µM [inhibitor, partial curve, poor fit] and inconclusive: 11.2 µM [inhibitor, partial curve, poor fit]

Q: With `COc1cccc(OCCNC(=O)c2ccc(C)cc2)c1` as the compound, how does the “activity change, negative = inhibition” value read?
A: inactive: -24.9% [at 46.1 µM]

Q: With `CCn1cc(C(=O)Nc2cccc(C(=O)OC)c2)c(=O)c2ccc(C)nc21` as the compound, how does the “activity change, negative = inhibition” value read?
A: inactive: -0.049%

Q: With `O=C(COC(=O)c1ccc2c(c1)S(=O)(=O)c1ccccc1C2=O)NC1CC1` as the compound, how does the Potency read?
A: inconclusive: 3.55 µM [inhibitor, single point]

Q: For `CCOc1ccccc1NC(=S)N(Cc1cc2ccc(C)cc2[nH]c1=O)CC1CCCN1CC` (centres undefined), which Potency is on record?
A: inconclusive: 35.5 µM [inhibitor, single point]

Q: Which Potency does the source give for `CC(C)C[C@H](NC(=O)[C@H](O)[C@H](N)Cc1ccccc1)C(=O)O` here?
A: inconclusive: 0.02 µM [inhibitor, full curve, poor fit]

Q: Which Potency does the source give for `CCc1ccccc1NC(=O)c1ccc(CN2CCC(Cc3ccccc3)CC2)cc1` here?
A: inconclusive: 20 µM [inhibitor, partial curve, poor fit]

Q: Which Potency does the source give for `C#CCN1C(=O)CC[C@@]23C1=NC(C(=O)OC)=C(C(=O)OC)[C@@H]2N(CC=C(C)C)c1ccccc13` here?
A: inactive

Q: Which “activity change, negative = inhibition” value does the source give for `COc1ccc(/C=C/C(=O)Nc2ccccc2C(F)(F)F)cc1OC` here?
A: inactive: 5.23%

Q: For `Clc1ccc(-c2nc3ncccn3c2Nc2ccc3c(c2)OCO3)cc1`, which Potency is on record?
A: inconclusive: 7.94 µM [activator, partial curve, poor fit]

Q: Which “activity change, negative = inhibition” value does the source give for `CCOc1ccccc1CNC(=O)Cn1ccc2cc(S(=O)(=O)N3CCCC3)ccc21` here?
A: inactive: -17.9% [at 46.1 µM]

Q: Which Potency does the source give for `COc1ccc(C(CNC(=O)C(C)c2ccc3cc(OC)ccc3c2)N(C)C)cc1` (centres undefined) here?
A: inconclusive: 15.8 µM [inhibitor, partial curve, poor fit]

Q: Which Potency does the source give for `CCOC(=O)CNC(=O)C1CCCN(c2ncccn2)C1` (centres undefined) here?
A: inconclusive: 4.11 µM [inhibitor, single point]

Q: Which Potency does the source give for `O=C(CC1C(=O)N(c2ccccc2)C(=O)N1CCC1=CCCCC1)Nc1ccc(F)cc1` (centres undefined) here?
A: inconclusive: 22.4 µM [inhibitor, single point]

Q: For `O=C1N(CN2C(=O)C3(OCCO3)c3ccccc32)c2ccccc2C12OCCO2`, which Potency is on record?
A: inconclusive: 3.98 µM [activator, full curve, poor fit]

Q: Which Potency does the source give for `Cc1cc(N(CC(=O)NC(C)C)S(C)(=O)=O)ccc1Br` here?
A: inconclusive: 0.398 µM [inhibitor, single point]

Source: PubChem BioAssay AID540276 (National Center for Advancing Translational Sciences (NCATS), 2011)
